“Also recorded” adds a separate entry of the source.
Columns and labels:
[1] = ability of detergents, buffers, solvents and additives to dissolve food matrices (matrix lysis development)
[2] = system: prfA gene of L. monocytogenes (real-time PCR); experiment: inhibitory effects of detergents on real-time PCR; format: biochemical; details: 0.1 M and 0.05 M urea
Method: For experiments analysing the effects of food matrices and detergents contained in the matrix lysis buffer on real-time PCR, food matrices were mixed with equal amounts of ddH2O, stomachered for 3 minutes, diluted in a 10-fold dilution series (10^−1, 10^−2 and 10^−3) and 5 μl directly subjected to the real time PCR samples. An aliquot was cooked 15 min at 100° C. for comparison prior to subjection of 5 μl to real-time PCR. Detergents were diluted in 2-fold dilution series (0.4 M-0.05 M Urea and 0.8%-0.005% SDS) and 5 μl were subjected to the real-time PCR samples.
Real-time PCR was performed in an Mx3000p real-time PCR thermocycler (Stratagene, USA). The 25 μl volume contained 20 mM Tris-HCl, 50 mM KCl, 3.5 mM MgCl2. 500 nM of each primer, 250 nM of each probe, 200 μM (each) of dATP, dTTP, dGTP and dCTP, 1.5 U of Platinum Taq DNA polymerase (Invitrogen, Austria), 25 copies of the IAC and […]. Amplification following initial denaturation at 94° C. for 2 min was performed in 45 cycles, at each 94° C. for 15 s and 64° C. for 1 minute.

For `Cl.N=C(N)N` [8 M Guanidine, guanidine hydrochloride], the “performance in lysing food matrices” value ([1]; combined with detergents) was “even better performance” and the “performance in lysing food matrices” value ([1]; used alone) was “good performance”.
In the case of `NC(N)=O` [8 M Urea, urea], the Ct value ([2]; 15.5 copies, 32.9 without urea) is reported as 32.9 (RSD: 2.6%) and the Ct value ([2]; 0.2 M, 1,550 copies, 26.3 without urea) is reported as 26.1 (RSD: 0.94%).
With `C[C@H](CCC(=O)NCCC[N+](C)(C)CCCS(=O)(=O)[O-])[C@H]1CC[C@H]2[C@@H]3[C@H](O)C[C@@H]4C[C@H](O)CC[C@]4(C)[C@H]3C[C@H](O)[C@]12C` [CHAPS, 3-[(3-cholamidopropyl)dimethylammonio]-1-propanesulfonate] the “lysis of food matrices” value ([1]; in combination with 8 M Urea or 8 M Guanidine) was “good performance; also recorded: worked well” and the “lysis of food matrices” value ([1]; used individually) was “insufficient lysis”.

From US9328326B2, “Method for isolating cells” (MERCK PATENT GMBH, priority 2006, dated 2016)
